Among the data in paper PMC5725448 are binding values, retold here.

The chains behind the UniProt entries cited, without tags or fusion partners.
UniProt P40763: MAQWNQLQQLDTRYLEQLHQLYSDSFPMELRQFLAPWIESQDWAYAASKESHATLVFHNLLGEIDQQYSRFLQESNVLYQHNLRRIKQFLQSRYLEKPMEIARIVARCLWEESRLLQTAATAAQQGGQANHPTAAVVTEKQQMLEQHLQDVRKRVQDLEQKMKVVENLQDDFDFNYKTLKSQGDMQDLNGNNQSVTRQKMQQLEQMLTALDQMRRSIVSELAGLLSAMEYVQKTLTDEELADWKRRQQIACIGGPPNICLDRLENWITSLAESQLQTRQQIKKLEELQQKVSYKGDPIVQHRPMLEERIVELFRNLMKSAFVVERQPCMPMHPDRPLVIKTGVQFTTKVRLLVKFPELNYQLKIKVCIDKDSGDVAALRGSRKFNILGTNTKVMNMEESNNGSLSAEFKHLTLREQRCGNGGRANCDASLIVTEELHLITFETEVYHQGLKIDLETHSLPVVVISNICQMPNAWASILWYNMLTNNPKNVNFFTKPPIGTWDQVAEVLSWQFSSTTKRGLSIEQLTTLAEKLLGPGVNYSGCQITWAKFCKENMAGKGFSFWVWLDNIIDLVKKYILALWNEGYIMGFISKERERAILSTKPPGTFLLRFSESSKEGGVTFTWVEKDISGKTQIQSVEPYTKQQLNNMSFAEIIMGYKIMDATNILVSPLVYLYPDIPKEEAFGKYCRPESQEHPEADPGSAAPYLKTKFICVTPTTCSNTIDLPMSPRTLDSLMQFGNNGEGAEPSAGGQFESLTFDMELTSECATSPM

Test [1] addresses T1, GST-RanBP6 fusion protein (human) (UniProt O60518).
T1 sequence: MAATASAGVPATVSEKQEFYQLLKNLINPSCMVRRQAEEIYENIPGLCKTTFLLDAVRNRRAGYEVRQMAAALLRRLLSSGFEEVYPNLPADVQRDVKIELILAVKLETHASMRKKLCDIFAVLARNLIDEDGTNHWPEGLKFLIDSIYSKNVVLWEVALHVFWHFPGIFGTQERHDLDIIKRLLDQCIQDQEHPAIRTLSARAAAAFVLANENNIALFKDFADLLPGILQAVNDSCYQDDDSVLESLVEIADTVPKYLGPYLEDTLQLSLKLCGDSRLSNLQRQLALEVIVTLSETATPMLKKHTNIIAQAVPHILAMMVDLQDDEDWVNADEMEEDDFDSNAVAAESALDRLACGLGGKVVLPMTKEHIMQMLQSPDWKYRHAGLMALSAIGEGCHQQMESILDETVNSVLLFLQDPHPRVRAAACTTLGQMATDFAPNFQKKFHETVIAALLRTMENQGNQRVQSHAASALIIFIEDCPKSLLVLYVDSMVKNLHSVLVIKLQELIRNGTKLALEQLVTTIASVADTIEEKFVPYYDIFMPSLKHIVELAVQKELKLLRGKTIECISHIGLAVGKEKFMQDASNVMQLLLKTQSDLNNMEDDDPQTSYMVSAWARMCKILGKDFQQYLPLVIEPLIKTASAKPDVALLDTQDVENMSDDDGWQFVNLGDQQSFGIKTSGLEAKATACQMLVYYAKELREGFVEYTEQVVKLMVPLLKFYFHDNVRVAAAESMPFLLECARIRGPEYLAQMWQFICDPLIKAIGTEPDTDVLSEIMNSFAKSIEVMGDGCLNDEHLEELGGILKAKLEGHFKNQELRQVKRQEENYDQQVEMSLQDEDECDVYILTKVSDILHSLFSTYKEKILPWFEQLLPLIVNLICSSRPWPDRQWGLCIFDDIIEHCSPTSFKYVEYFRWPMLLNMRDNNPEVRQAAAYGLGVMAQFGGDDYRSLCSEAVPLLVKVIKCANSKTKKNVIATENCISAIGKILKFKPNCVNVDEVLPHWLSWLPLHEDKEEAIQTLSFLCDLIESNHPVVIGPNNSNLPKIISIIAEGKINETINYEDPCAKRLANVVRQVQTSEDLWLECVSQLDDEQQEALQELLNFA
Briefly: pull-down; about 25 μg GST-RanBP6 beads incubated with 500 μg HEK-293T whole-cell lysate for 2-4 h in the cold; cells serum starved 12 h and stimulated with EGF (100 ng/ml) or grown in full media; for EGFR also pretreatment with the AKT inhibitor MK-2206 (EGF reduced the association, MK-2206 rescued it); immunoblot; only the target purified. (Immunoblotting shows a protein as a band on a membrane.)

Test [2] concerns the target epidermal growth factor receptor (EGFR) (human (endogenous in HEK-293T and LN18)) (UniProt P00533). Briefly: co-IP; immunoprecipitation of endogenous EGFR from lysates of HEK-293T and LN18 cells with Dox-induced RanBP6-V5 (- and + Dox); blot with V5 and EGFR antibodies.
Test [3] deals with epidermal growth factor receptor (EGFR) (human (endogenous in A431, HEK-293T, LN18)) (UniProt P00533). Briefly: co-IP; immunoprecipitation of endogenous EGFR from HEK-293T and LN18 cells, RanBP6 detected.

No constants are given. Whether binding was seen depends on the method and setting. Binding seen in cells or lysates may run through a third protein. Some results given as binding are weak or reduced against the parent protein; the word gives no strength. For some assays here: Tags and fused reporters may be left off the sequences shown.

With “phosphorylated STAT3 (tyrosine 705) (from UniProt P40763 1-770)”, in test [1], the binding entry is listed as “binds”.

Consider “signal transducer and activator of transcription 3 (STAT3) (from UniProt P40763 1-770)”, for which, in test [1], the binding result is “binds”.

B1: nuclear pore complex protein Nup93 (protein, UniProt Q8N1F7 1-819)
chain: MDTEGFGELLQQAEQLAAETEGISELPHVERNLQEIQQAGERLRSRTLTRTSQETADVKASVLLGSRGLDISHISQRLESLSAATTFEPLEPVKDTDIQGFLKNEKDNALLSAIEESRKRTFGMAEEYHRESMLVEWEQVKQRILHTLLASGEDALDFTQESEPSYISDVGPPGRSSLDNIEMAYARQIYIYNEKIVNGHLQPNLVDLCASVAELDDKSISDMWTMVKQMTDVLLTPATDALKNRSSVEVRMEFVRQALAYLEQSYKNYTLVTVFGNLHQAQLGGVPGTYQLVRSFLNIKLPAPLPGLQDGEVEGHPVWALIYYCMRCGDLLAASQVVNRAQHQLGEFKTWFQEYMNSKDRRLSPATENKLRLHYRRALRNNTDPYKRAVYCIIGRCDVTDNQSEVADKTEDYLWLKLNQVCFDDDGTSSPQDRLTLSQFQKQLLEDYGESHFTVNQQPFLYFQVLFLTAQFEAAVAFLFRMERLRCHAVHVALVLFELKLLLKSSGQSAQLLSHEPGDPPCLRRLNFVRLLMLYTRKFESTDPREALQYFYFLRDEKDSQGENMFLRCVSELVIESREFDMILGKLENDGSRKPGVIDKFTSDTKPIINKVASVAENKGLFEEAAKLYDLAKNADKVLELMNKLLSPVVPQISAPQSNKERLKNMALSIAERYRAQGISANKFVDSTFYLLLDLITFFDEYHSGHIDRAFDIIERLKLVPLNQESVEERVAAFRNFSDEIRHNLSEVLLATMNILFTQFKRLKGTSPSSSSRPQRVIEDRDSQLRSQARTLITFAGMIPYRTSGDTNARLVQMEVLMN
B1: the binding entry in test [1] is recorded as “binds”.

B2: V5 epitope tagged RanBP6-V5 (Ran-binding protein 6) (protein, UniProt O60518 1-1105)
chain: MAATASAGVPATVSEKQEFYQLLKNLINPSCMVRRQAEEIYENIPGLCKTTFLLDAVRNRRAGYEVRQMAAALLRRLLSSGFEEVYPNLPADVQRDVKIELILAVKLETHASMRKKLCDIFAVLARNLIDEDGTNHWPEGLKFLIDSIYSKNVVLWEVALHVFWHFPGIFGTQERHDLDIIKRLLDQCIQDQEHPAIRTLSARAAAAFVLANENNIALFKDFADLLPGILQAVNDSCYQDDDSVLESLVEIADTVPKYLGPYLEDTLQLSLKLCGDSRLSNLQRQLALEVIVTLSETATPMLKKHTNIIAQAVPHILAMMVDLQDDEDWVNADEMEEDDFDSNAVAAESALDRLACGLGGKVVLPMTKEHIMQMLQSPDWKYRHAGLMALSAIGEGCHQQMESILDETVNSVLLFLQDPHPRVRAAACTTLGQMATDFAPNFQKKFHETVIAALLRTMENQGNQRVQSHAASALIIFIEDCPKSLLVLYVDSMVKNLHSVLVIKLQELIRNGTKLALEQLVTTIASVADTIEEKFVPYYDIFMPSLKHIVELAVQKELKLLRGKTIECISHIGLAVGKEKFMQDASNVMQLLLKTQSDLNNMEDDDPQTSYMVSAWARMCKILGKDFQQYLPLVIEPLIKTASAKPDVALLDTQDVENMSDDDGWQFVNLGDQQSFGIKTSGLEAKATACQMLVYYAKELREGFVEYTEQVVKLMVPLLKFYFHDNVRVAAAESMPFLLECARIRGPEYLAQMWQFICDPLIKAIGTEPDTDVLSEIMNSFAKSIEVMGDGCLNDEHLEELGGILKAKLEGHFKNQELRQVKRQEENYDQQVEMSLQDEDECDVYILTKVSDILHSLFSTYKEKILPWFEQLLPLIVNLICSSRPWPDRQWGLCIFDDIIEHCSPTSFKYVEYFRWPMLLNMRDNNPEVRQAAAYGLGVMAQFGGDDYRSLCSEAVPLLVKVIKCANSKTKKNVIATENCISAIGKILKFKPNCVNVDEVLPHWLSWLPLHEDKEEAIQTLSFLCDLIESNHPVVIGPNNSNLPKIISIIAEGKINETINYEDPCAKRLANVVRQVQTSEDLWLECVSQLDDEQQEALQELLNFA
Turning to B2, the binding entry in test [2] is reported as “binds”.

B3: Ran-binding protein 6 (RanBP6), endogenous (protein, UniProt O60518 1-1105)
chain: MAATASAGVPATVSEKQEFYQLLKNLINPSCMVRRQAEEIYENIPGLCKTTFLLDAVRNRRAGYEVRQMAAALLRRLLSSGFEEVYPNLPADVQRDVKIELILAVKLETHASMRKKLCDIFAVLARNLIDEDGTNHWPEGLKFLIDSIYSKNVVLWEVALHVFWHFPGIFGTQERHDLDIIKRLLDQCIQDQEHPAIRTLSARAAAAFVLANENNIALFKDFADLLPGILQAVNDSCYQDDDSVLESLVEIADTVPKYLGPYLEDTLQLSLKLCGDSRLSNLQRQLALEVIVTLSETATPMLKKHTNIIAQAVPHILAMMVDLQDDEDWVNADEMEEDDFDSNAVAAESALDRLACGLGGKVVLPMTKEHIMQMLQSPDWKYRHAGLMALSAIGEGCHQQMESILDETVNSVLLFLQDPHPRVRAAACTTLGQMATDFAPNFQKKFHETVIAALLRTMENQGNQRVQSHAASALIIFIEDCPKSLLVLYVDSMVKNLHSVLVIKLQELIRNGTKLALEQLVTTIASVADTIEEKFVPYYDIFMPSLKHIVELAVQKELKLLRGKTIECISHIGLAVGKEKFMQDASNVMQLLLKTQSDLNNMEDDDPQTSYMVSAWARMCKILGKDFQQYLPLVIEPLIKTASAKPDVALLDTQDVENMSDDDGWQFVNLGDQQSFGIKTSGLEAKATACQMLVYYAKELREGFVEYTEQVVKLMVPLLKFYFHDNVRVAAAESMPFLLECARIRGPEYLAQMWQFICDPLIKAIGTEPDTDVLSEIMNSFAKSIEVMGDGCLNDEHLEELGGILKAKLEGHFKNQELRQVKRQEENYDQQVEMSLQDEDECDVYILTKVSDILHSLFSTYKEKILPWFEQLLPLIVNLICSSRPWPDRQWGLCIFDDIIEHCSPTSFKYVEYFRWPMLLNMRDNNPEVRQAAAYGLGVMAQFGGDDYRSLCSEAVPLLVKVIKCANSKTKKNVIATENCISAIGKILKFKPNCVNVDEVLPHWLSWLPLHEDKEEAIQTLSFLCDLIESNHPVVIGPNNSNLPKIISIIAEGKINETINYEDPCAKRLANVVRQVQTSEDLWLECVSQLDDEQQEALQELLNFA
On to B3, for which the binding result in test [3] is “binds”.
